According to publication PMC12570880:
Results are given in words; binding and its absence hold for the method and conditions named. In cells and extracts the contact can be indirect. Some entries that bind do so weakly or less than the wild type.

Protein sequences, listed by entry. Tags and fused reporters are not part of them. Lines headed by an entry give the natural chain unless they say otherwise; changes in a name come on top.
UniProt Q8TDY4: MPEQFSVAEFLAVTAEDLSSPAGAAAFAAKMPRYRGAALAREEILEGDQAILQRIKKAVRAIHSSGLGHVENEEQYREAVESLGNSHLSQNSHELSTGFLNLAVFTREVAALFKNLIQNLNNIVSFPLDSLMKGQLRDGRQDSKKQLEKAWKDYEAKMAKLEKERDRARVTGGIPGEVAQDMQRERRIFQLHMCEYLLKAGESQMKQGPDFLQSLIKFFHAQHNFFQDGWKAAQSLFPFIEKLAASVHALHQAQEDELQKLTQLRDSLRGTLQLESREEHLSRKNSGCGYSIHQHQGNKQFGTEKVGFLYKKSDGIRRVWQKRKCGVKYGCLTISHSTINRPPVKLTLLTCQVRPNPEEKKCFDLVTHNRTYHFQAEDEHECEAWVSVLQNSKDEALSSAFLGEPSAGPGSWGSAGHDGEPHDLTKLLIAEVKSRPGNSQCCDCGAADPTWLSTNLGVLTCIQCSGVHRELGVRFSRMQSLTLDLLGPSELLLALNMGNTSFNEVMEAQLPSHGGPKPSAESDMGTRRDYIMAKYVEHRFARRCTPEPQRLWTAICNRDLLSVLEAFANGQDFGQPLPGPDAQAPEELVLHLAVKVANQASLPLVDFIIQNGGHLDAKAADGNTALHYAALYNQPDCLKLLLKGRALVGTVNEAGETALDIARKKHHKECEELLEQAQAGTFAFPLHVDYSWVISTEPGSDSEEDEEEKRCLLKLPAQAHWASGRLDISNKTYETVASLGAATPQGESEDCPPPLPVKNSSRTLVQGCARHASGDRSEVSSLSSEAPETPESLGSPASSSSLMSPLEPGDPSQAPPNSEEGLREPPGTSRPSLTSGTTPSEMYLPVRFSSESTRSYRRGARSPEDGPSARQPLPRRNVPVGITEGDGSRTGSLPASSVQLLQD
UniProt P62330: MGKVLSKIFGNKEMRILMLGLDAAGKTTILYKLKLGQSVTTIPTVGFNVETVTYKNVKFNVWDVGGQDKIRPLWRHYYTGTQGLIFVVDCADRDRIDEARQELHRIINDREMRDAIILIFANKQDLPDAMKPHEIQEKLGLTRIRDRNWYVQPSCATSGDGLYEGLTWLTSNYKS

What was measured:
[1] = target: FLAG-ACAP4 (HEK293T) (UniProt Q8TDY4); test: co-IP; HEK293T transfected with constitutively active ARF6 Q67L, HA-Acapin and FLAG-ACAP4; with overexpression of HA-Acapin (Supplementary Figure S2A)
[2] = target: FLAG-ACAP4 (HEK293T) (UniProt Q8TDY4); test: co-IP; HEK293T co-transfected with HA-ARF6 and FLAG-ACAP4 and increasing amounts of HA-Acapin; lysed in IP buffer containing 100 uM GTPgammaS; FLAG IP and IB

| binding [1] | binding [2] | Substance |
| --- | --- | --- |
| binds |  | HA-ARF6^Q67L (constitutively active) (from UniProt P62330 1-175) |
|  | binds | HA-ARF6 (wild type) (from UniProt P62330 1-175) |
